From article PMC13280575

By UniProt entry, the sequences of proteins in these tests, tags left out. Where a name states a change or a piece, a line headed by the entry shows the natural chain unless it says otherwise. Residues count along the entry.
UniProt P14859: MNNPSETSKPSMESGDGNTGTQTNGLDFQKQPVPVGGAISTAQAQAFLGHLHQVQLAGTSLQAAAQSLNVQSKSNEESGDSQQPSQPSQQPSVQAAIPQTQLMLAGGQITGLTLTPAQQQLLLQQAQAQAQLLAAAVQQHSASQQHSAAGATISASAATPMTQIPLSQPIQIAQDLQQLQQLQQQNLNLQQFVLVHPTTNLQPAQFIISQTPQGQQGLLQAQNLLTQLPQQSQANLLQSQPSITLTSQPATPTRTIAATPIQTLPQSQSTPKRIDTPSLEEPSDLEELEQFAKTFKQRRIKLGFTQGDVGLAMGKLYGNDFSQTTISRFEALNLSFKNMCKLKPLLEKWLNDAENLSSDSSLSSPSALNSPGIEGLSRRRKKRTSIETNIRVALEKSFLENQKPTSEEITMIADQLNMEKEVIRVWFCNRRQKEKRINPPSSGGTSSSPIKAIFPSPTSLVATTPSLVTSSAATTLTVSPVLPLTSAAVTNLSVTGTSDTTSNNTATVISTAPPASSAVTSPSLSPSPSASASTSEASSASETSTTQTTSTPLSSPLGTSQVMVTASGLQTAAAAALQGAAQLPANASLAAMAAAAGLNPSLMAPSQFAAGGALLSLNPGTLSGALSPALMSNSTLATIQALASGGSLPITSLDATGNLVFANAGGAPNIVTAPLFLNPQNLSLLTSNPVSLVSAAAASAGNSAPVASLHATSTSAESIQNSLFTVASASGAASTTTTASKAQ
UniProt P38398, residues 1-400: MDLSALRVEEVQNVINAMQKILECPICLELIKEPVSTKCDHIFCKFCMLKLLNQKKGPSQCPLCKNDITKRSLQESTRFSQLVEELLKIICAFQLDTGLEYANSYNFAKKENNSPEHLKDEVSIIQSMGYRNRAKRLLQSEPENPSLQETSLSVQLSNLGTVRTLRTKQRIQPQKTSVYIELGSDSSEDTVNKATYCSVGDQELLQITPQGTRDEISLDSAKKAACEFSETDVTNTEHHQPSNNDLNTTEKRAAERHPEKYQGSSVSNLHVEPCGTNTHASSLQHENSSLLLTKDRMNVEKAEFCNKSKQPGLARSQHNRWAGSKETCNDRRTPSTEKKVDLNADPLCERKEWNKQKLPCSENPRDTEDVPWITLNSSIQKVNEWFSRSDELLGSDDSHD

Target: FLAG-POU domain of POU2F1(OCT-1), in vitro translated (human) (UniProt P14859)
Experiment: pull-down; in vitro translated FLAG-POU on anti-FLAG M2 agarose beads, alone or first with in vitro translated (myc)6-BRCA1 fragment (1 h, 4 °C), then [35S]-labelled (myc)6-PER2 (2 h); autoradiography

binding: binds
Substance: (myc)6-BRCA1 (1–400), in vitro translated (from UniProt P38398 1-400) (domain or fragment)

These are yes or no findings as the source states them, for the method shown. In cells and extracts the contact can be indirect. Binding can be weak; no strength is given.
